Measured values taken from PubChem BioAssay AID493014 (National Center for Advancing Translational Sciences (NCATS), 2011).
Some of the results follow. Further columns of the screen follow, without active or inactive calls. The list favours compounds with an active or inconclusive main result. Words in brackets tell the shape of the fitted curve; partial curves, single points and poor fits give uncertain potencies.

Assay: qHTS Assay to Find Inhibitors of Chronic Active B-Cell Receptor Signaling
Details: ABC-DLBCL IkBa-CBG/CBR reporter, luminescence ratio (green luciferase fused to IkBa over red control in TMD8 lymphoma cells), 4 h
Procedure, shortened: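 Cell line TMD8 (human ABC DLBCL), stably expressing tet-inducible CBG68-IkBa fusion and CBR; IMDM/0.5% FBS; cpd up to 46 uM; dox induction, 4 h, 37C/5% CO2; dual luminescence; green/red ratio; MG132 control.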

[1] = measured here: CBR red luminescence, cell number
[2] = measured here: IkBa-CBG green luminescence

Row | SMILES | AC50 [1] | AC50 [2]
1 | O=C(CCSc1nnc(-c2ccc(O)cc2)o1)N1CCOCC1 | 6.31 µM [rising, partial curve] | 
2 | Cc1ccc(C)c(S(=O)(=O)N2CCCOC2CNC(=O)C(=O)NCc2ccccc2)c1 (stereo not drawn) | 3.55 µM [rising, single point] | 
3 | COc1cccc2cc(C(=O)Nc3ccccc3C)/c(=N/O)oc12 | 7.08 µM [falling, full curve, poor fit] | 
4 | CC(C)C[C@H](NC(=O)c1nc[nH]c1C(=O)NCc1ccccc1)C(=O)OC(C)(C)C | 0.112 µM [rising, full curve, poor fit] | 
5 | CCN(CCCNC(=O)C1CCN(S(=O)(=O)c2c(C)[nH]c(=O)[nH]c2=O)CC1)c1cccc(C)c1 | 3.66 µM [rising, partial curve, poor fit] | 
6 | Cc1ccc(N2CCN(/N=C/c3cccs3)CC2)cc1 | 6.51 µM [rising, single point] | 
7 | Cn1c(SCC(=O)N(Cc2ccccc2)C(C)(C)C)nc2ccccc21 | 3.26 µM [falling, partial curve, poor fit] | 
8 | Cc1cccc([C@@H]2[C@@H]3C(=O)N(Cc4ccccc4)C(=O)[C@@H]3[C@]3(Cc4ccc(Cl)cc4)C(=O)N(c4ccccc4)C(=O)N23)c1 | 4.47 µM [rising, full curve, poor fit] | 
9 | COc1ccc(NC(=O)c2onc(C)c2Cl)cc1OC | 29.1 µM [falling, single point] | 
10 | COc1ccc(Cl)cc1NS(=O)(=O)c1cccc(C(=O)NCC2(N(C)C)CCCCC2)c1 | 12.6 µM [falling, partial curve, poor fit] | 
11 | O=C(c1ccccc1F)N1CCN=C1SCc1cccnc1 | 6.51 µM [rising, single point] | 
12 | O=C(COC(=O)c1ccc(S(=O)(=O)Nc2ccccc2)cc1)NCC1CCCO1 (stereo not drawn) | 6.31 µM [rising, single point] | 
13 | O=C(CN1CCOCCOCCN(CC(=O)Nc2ccccc2)CCOCC1)Nc1ccccc1 | 5.62 µM [rising, single point] | 
14 | COc1ccc(CCNC(=O)c2cc(-c3ccccc3O)n[nH]2)cc1OC | 6.51 µM [falling, partial curve, poor fit] | 
15 | CCOC(=O)COc1ccccc1/C=C\[N+](=O)[O-] | 23.1 µM [falling, partial curve] | 
16 | Cc1ccccc1COCCN1CCN(S(=O)(=O)c2ccccc2)CCC1=O | 3.16 µM [falling, single point] | 
17 | CC(=O)c1c(C)n(-c2ccccc2)c2ccc(OCC(N)=O)cc12 | 3.98 µM [rising, partial curve, poor fit] | 
18 | Cc1sc(NC(=O)c2ccccc2)c(C#N)c1-c1ccccc1 | 3.26 µM [rising, partial curve, poor fit] | 3.26 µM [falling, partial curve, poor fit]
19 | C(=N\Nc1nc(-c2ccccn2)nc2ccccc12)/c1ccccc1 | 3.16 µM [rising, single point] | 2.82 µM [falling, partial curve, poor fit]
20 | CCOC(=O)c1ccc(NC(=O)Nc2cc(C)on2)cc1 | 0.651 µM [rising, full curve, poor fit] | 

Row | SMILES | AC50 [1] | AC50 [2]
21 | Clc1ccc(C2=NNC(=NCc3ccccc3)SC2)cc1 | 5.62 µM [falling, full curve] | 
22 | CCCC(O)(c1ccc(OC)cc1)C(CN1CCOCC1)c1ccccc1 (stereo not drawn) | 22.4 µM [falling, partial curve, poor fit] | 
23 | Cc1cc(CN(C)C(=O)CC2C(=O)NCCN2Cc2ccc(-c3ccccc3)cc2)on1 (stereo not drawn) | 5.62 µM [falling, partial curve] | 
24 | O=C1CC(N(O)c2ccccc2)C(=O)N1c1cc(Cl)cc(Cl)c1 (stereo not drawn) | 10 µM [falling, partial curve, poor fit] | 
25 | Oc1ccc(C2=NN(c3ccccc3)C(c3ccc(F)cc3)C2)cc1 (stereo not drawn) | 11.2 µM [rising, partial curve] | 
26 | CC(=O)Nc1cccc(-c2csc(Nc3ccccn3)n2)c1 | 17.8 µM [falling, partial curve, poor fit] | 
27 | Cc1ccccc1NS(=O)(=O)c1ccc(-c2ccc(=O)[nH]n2)o1 | 35.5 µM [falling, partial curve, poor fit] | 
28 | COc1cc(C(C)=O)ccc1COc1ccc(C(=O)OCC(=O)NC(C)(C)C)cc1OC | 20.6 µM [rising, single point] | 
29 | CC(=O)c1cc(C#N)c(SCc2ccccc2C#N)nc1C | 8.2 µM [rising, partial curve, poor fit] | 
30 | Cc1cc(C(=O)NNS(=O)(=O)c2cc(C(=O)O)ccc2Cl)c(C)n1-c1ccccc1 | 4.61 µM [rising, single point] | 
31 | O=C(NNC(=S)NC(=O)c1ccccc1[N+](=O)[O-])c1ccccc1O | 2.24 µM [falling, partial curve, poor fit] | 
32 | CCN=C1SC(C(=O)Nc2ccccc2)CC(=O)N1CC (stereo not drawn) | 18.4 µM [rising, single point] | 
33 | O=C(Nc1ccccc1)OCCCc1ccccc1 | 12.6 µM [falling, partial curve, poor fit] | 
34 | O=C(CC(c1ccccc1)c1ccccc1)OCn1nnc2ccccc2c1=O | 18.4 µM [rising, partial curve, poor fit] | 
35 | COc1ccc(C(=O)NCC(=O)N/N=C(\C)Cc2ccccc2)cc1 | 6.31 µM [falling, single point] | 
36 | O=C(NC(=S)Nc1ccccc1N1CCCCC1)c1ccco1 | 14.6 µM [rising, partial curve, poor fit] | 
37 | O=C(Nc1ccc(Cl)cc1)N1CCCC1 | 1.64 µM [rising, full curve] | 
38 | CCN(CCCNC(=O)CNC(=O)c1nn(-c2ccc(OC)c(OC)c2)c(=O)c2ccccc12)c1ccccc1 |  | 22.4 µM [rising, partial curve, poor fit]
39 | O=C(Nc1nc2cc3c(cc2s1)OCCO3)c1cccc(S(=O)(=O)N2CCOCC2)c1 | 22.4 µM [falling, single point] | 
40 | CCOC(=O)/C(C#N)=C\C1=C(N2CCOCC2)CC(C)(C)OC1 | 22.4 µM [falling, single point] | 

Row | SMILES | AC50 [1] | AC50 [2]
41 | O=C(Nc1ccc2ccccc2n1)c1ccccc1Cl | 2.82 µM [falling, full curve, poor fit] | 
42 | Cc1cc(C)c2cc(CN(CCO)C(c3nnnn3Cc3ccc(F)cc3)C(C)C)c(=O)[nH]c2c1 (stereo not drawn) | 0.82 µM [rising, partial curve, poor fit] | 
43 | O=[N+]([O-])c1ccccc1-c1nc(-c2ccc(Br)o2)no1 | 1.84 µM [rising, full curve] | 
44 | O=C1/C(=C/N(C(=O)c2ccco2)c2ccc(Br)cc2)Sc2ccccc21 | 25.9 µM [falling, partial curve, poor fit] | 
45 | COc1ccc(/C=N/n2cnnc2SCCO)cc1OC | 15.8 µM [rising, partial curve, poor fit] | 
46 | O=Nc1c(O)n(Cc2ccc(Cl)cc2Cl)c2ccccc12 | 12.6 µM [rising, partial curve, poor fit] | 
47 | NC(=O)CC1C(=O)N(c2ccccc2)C(=S)N1NC(=O)c1ccc(Br)cc1 (stereo not drawn) | 11.2 µM [falling, partial curve] | 
48 | COc1cc(-c2noc(C)c2/C=C/c2ccc(OC(C)=O)cc2)cc(OC)c1OC |  | 5.62 µM [falling, partial curve]
49 | CCS(=O)(=O)N1Cc2ccccc2CC1C(=O)N1CCN(c2ccccc2)CC1 (stereo not drawn) | 5.62 µM [rising, single point] | 
50 | CC(C)(C)C(=O)[C@@H]1[C@@H]2C(=O)N(Cc3ccccc3)C(=O)[C@@H]2[C@H]2c3ccccc3C=CN12 | 16.4 µM [falling, single point] | 
51 | Cc1cccc(C(=O)NC(=S)NNC(=O)c2cccs2)c1 | 23.1 µM [falling, single point] | 
52 | COc1cc(C2=NOC(C(=O)NCc3ccco3)C2)cc(OC)c1OC (stereo not drawn) | 35.5 µM [rising, single point] | 25.1 µM [falling, partial curve, poor fit]
53 | O=C(COC(=O)c1cnccn1)Nc1ccc(Cl)cc1C(F)(F)F | 0.326 µM [rising, full curve, poor fit] | 
54 | O=C(CN(c1ccc2c(c1)OCCO2)S(=O)(=O)c1ccccc1)NCc1ccc(Cl)cc1 | 18.4 µM [falling, partial curve, poor fit] | 
55 | CC1CCN(c2c(NCC3CCC(C(=O)NCCC4=CCCCC4)CC3)c(=O)c2=O)CC1 (stereo not drawn) | 5.62 µM [rising, single point] | 
56 | C=CCn1c(N)c(C(=O)NCC2CCCO2)c2nc3ccccc3nc21 (stereo not drawn) | 3.16 µM [falling, full curve, poor fit] | 
57 | Cc1cccnc1NC(=O)CSc1ccc2c(c1)OCCO2 | 1.46 µM [falling, partial curve, poor fit] | 
58 | CCC(=O)NC1=C(NC(C)c2ccccc2)C(=O)c2ccccc2C1=O (stereo not drawn) | 16.4 µM [rising, partial curve, poor fit] | 
59 | C/C(=N\NC(=O)C(C)Sc1ccccc1)c1ccc([N+](=O)[O-])cc1 (stereo not drawn) | 7.94 µM [rising, partial curve] | 
60 | CC(=O)O[C@H]1CC[C@]2(C)[C@H]3CC=C4[C@@H]5[C@@H](C)[C@H](C)CC[C@]5(C(=O)O)CC[C@@]4(C)[C@]3(C)CC[C@H]2C1(C)C | 22.4 µM [rising, partial curve, poor fit] | 

Copied from the list.
AC50 [1], CCOC(=O)c1ccc(NC(=O)Nc2cc(C)on2)cc1 is entered as 0.651 µM [rising, full curve, poor fit]
AC50 [1], CC(=O)O[C@H]1CC[C@]2(C)[C@H]3CC=C4[C@@H]5[C@@H](C)[C@H](C)CC[C@]5(C(=O)O)CC[C@@]4(C)[C@]3(C)CC[C@H]2C1(C)C is entered as 22.4 µM [rising, partial curve, poor fit]
AC50 [1], CCOC(=O)COc1ccccc1/C=C\[N+](=O)[O-] is entered as 23.1 µM [falling, partial curve]
AC50 [1], COc1cc(C(C)=O)ccc1COc1ccc(C(=O)OCC(=O)NC(C)(C)C)cc1OC is entered as 20.6 µM [rising, single point]
